No constants are given. Whether binding was seen depends on the method and setting. Some binding calls cover weakened binding; strength is not graded here.
Experiments:
[1] = biological target: T1, native human A33 antigen expressed on the cell surface of human colon cancer cell lines (LIM1215, SW1222, NCI-H508) (human) (UniProt Q99795); test: flow cytometry on LIM1215 and SW1222 (A33+) vs HT29 (A33-)
T1 sequence (looked up): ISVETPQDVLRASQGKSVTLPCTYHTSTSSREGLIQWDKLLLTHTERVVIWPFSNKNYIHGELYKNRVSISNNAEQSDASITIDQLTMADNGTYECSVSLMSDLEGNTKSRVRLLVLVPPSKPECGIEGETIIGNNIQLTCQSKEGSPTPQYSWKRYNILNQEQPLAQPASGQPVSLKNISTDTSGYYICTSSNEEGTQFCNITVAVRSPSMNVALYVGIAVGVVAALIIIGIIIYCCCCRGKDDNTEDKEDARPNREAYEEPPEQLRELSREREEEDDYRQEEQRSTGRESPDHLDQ

[2] = biological target: T2, recombinant human A33 antigen (human, UniProt Q99795 22-233, limits assumed); test: SPR (Biacore), recombinant human A33 immobilized
T2 construct: also called human antigen A33; immobilized recombinant human A33
T2 sequence (looked up): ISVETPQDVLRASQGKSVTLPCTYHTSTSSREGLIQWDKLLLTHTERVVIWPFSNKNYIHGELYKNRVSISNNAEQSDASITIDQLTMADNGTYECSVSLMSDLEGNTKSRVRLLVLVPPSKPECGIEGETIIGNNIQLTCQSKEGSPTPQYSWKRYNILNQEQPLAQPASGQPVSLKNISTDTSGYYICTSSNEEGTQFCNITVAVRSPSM

[3] = biological target: T1, native human A33 antigen expressed on the cell surface of human colon cancer cell lines (LIM1215, SW1222, NCI-H508) (human); test: flow cytometry, indirect immunofluorescence on colon cancer cell lines
[4] = biological target: T2, recombinant human A33 antigen; test: ELISA, supernatants of induced clones on immobilized recombinant human A33

Measured: binding

B1: rabbit Fab 1 (rabbit VH1, VL1; chimeric rabbit/human Fab) (Fab, V domains shown)
VH: QQQVMESGGGLVTLGGSLTLTCKASGIDFSNNGISWVRQAPGKGLEWILYIYPDYGSTDYASWVNGRFTISLDNAQNTVFLQMTSLTAADTATYFCARDRGAYAGSRGTRLDLWGQGTLVTVSS
VL: EFDMTQTPPSLSASVGETVRIRCLASEFLFNGVSWYQQKPGKPPKFLISGASNLESGVPPRFSGSGSGTDYTLTIGGVQAEDVATYYCLGGYSGSSGLTFGAGTNVEIK
notes: Soluble Fab from E. coli; also called rabbit 1; rabbit clone 1
binds: all assays above

— patent US6346249 (LUDWIG INSTITUTE FOR CANCER RESEARCH, dated 2002)
